Experimental data from paper PMC11109641.
These are yes or no findings as the source states them, for the method shown. Binding seen in cells or lysates may run through a third protein. Some results given as binding are weak or reduced against the parent protein; the word gives no strength.

Amino acid sequences for entries named in this document (tags omitted).
UniProt Q96EB6: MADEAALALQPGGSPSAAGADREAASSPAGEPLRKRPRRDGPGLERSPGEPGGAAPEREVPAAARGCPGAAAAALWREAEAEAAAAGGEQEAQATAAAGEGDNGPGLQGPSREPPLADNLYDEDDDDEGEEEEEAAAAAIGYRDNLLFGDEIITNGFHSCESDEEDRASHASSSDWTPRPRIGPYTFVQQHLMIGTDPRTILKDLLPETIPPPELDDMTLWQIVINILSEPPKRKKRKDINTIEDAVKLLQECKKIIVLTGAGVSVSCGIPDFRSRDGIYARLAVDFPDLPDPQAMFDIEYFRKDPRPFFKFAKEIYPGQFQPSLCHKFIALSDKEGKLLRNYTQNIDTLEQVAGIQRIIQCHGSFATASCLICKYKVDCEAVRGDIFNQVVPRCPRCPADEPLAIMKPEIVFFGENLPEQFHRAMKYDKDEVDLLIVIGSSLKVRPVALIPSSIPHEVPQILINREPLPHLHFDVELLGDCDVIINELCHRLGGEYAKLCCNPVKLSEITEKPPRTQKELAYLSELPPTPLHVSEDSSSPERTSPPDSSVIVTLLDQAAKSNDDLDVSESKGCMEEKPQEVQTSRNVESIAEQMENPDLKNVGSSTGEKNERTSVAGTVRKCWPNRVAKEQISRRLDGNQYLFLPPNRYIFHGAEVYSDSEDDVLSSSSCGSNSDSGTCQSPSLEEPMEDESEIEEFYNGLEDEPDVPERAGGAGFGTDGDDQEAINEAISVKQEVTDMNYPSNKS
UniProt Q92793: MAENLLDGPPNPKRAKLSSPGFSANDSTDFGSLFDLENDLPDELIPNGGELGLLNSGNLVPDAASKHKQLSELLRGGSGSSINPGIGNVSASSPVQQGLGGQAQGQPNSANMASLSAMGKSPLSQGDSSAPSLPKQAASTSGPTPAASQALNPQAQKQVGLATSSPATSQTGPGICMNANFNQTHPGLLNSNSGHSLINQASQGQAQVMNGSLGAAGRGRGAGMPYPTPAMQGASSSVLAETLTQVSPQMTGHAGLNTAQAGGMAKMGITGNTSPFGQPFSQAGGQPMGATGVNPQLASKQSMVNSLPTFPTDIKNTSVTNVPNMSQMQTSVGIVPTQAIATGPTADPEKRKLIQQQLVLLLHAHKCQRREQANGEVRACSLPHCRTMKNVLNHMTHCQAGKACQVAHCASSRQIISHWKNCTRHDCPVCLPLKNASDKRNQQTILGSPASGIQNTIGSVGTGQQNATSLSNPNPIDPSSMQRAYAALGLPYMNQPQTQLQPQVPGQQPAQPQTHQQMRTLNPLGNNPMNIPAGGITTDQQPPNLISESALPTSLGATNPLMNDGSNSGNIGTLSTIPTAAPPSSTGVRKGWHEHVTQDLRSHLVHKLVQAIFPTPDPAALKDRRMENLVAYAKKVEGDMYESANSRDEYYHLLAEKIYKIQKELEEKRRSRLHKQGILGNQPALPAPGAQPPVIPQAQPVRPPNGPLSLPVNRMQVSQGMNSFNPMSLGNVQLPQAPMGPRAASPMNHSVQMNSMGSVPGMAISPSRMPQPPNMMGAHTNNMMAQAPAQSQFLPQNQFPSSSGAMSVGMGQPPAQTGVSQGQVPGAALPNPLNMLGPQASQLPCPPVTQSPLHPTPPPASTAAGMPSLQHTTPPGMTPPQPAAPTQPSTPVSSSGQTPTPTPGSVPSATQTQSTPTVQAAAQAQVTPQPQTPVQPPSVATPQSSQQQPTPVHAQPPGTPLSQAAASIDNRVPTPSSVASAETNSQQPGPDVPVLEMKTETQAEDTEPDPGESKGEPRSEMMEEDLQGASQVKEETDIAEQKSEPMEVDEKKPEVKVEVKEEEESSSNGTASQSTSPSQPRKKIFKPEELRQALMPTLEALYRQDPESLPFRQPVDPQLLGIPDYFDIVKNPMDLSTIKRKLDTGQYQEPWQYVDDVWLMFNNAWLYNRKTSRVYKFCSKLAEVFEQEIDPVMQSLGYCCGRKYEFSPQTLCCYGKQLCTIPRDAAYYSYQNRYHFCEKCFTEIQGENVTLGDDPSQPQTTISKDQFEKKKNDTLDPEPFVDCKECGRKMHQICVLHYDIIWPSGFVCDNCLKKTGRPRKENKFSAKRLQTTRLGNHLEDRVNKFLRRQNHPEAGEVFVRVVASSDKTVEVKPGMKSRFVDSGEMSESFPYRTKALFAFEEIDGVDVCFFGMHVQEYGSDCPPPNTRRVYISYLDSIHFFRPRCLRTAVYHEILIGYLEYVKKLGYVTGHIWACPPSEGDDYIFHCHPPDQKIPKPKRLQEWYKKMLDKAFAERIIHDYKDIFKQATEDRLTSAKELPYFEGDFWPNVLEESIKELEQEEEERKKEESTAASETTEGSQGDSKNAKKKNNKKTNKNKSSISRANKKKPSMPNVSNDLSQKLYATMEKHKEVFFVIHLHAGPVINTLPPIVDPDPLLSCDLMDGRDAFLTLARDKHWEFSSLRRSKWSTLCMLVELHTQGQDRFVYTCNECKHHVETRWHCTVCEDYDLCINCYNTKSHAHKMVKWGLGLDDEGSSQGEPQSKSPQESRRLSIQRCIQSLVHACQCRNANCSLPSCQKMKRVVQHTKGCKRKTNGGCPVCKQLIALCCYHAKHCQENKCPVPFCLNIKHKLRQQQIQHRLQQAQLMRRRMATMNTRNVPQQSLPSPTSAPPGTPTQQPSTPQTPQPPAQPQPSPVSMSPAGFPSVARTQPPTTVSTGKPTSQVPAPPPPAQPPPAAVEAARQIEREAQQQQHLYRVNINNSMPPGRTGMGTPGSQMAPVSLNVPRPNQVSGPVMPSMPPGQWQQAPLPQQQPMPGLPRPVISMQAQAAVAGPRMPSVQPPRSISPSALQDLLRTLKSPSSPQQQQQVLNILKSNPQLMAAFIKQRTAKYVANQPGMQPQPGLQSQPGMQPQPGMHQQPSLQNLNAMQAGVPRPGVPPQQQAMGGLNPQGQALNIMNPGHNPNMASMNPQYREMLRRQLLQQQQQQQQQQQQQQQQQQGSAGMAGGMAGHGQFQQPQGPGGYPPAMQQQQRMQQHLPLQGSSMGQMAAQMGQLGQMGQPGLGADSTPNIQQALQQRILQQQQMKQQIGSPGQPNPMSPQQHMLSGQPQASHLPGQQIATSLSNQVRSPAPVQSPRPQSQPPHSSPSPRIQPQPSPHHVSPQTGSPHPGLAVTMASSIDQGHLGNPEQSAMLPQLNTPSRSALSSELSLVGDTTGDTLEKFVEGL

Molecular target: SIRT1 (human) (UniProt Q96EB6)
Test: co-IP; CBP and SIRT1 in HEK293T cells; bait and tags not stated

binding: binds
Substance: CREB binding protein (CBP) acetyltransferase (from UniProt Q92793 1-2442) (enzyme)
